Measurements: PubChem BioAssay AID248 (DTP/NCI, 2004)
The list does not hold the whole screen: it gathers tests that were run many times, whatever their T/C, doses with no T/C, and many T/C values between a quarter and a half above the control. Further doses and runs are listed elsewhere. T/C: endpoint of the treated group in % of that of the vehicle group. Some entries give survivors of the animals treated and no T/C: the source files T/C as zero there, which appears to mark a toxic dose or a test without result, not a measured value. Some doses without a T/C left all or most animals alive at the check, yet need not have been tolerated: the source hardly ever lists a survival T/C far under the control, and the zero likely stands for such cases as well. Counts of survivors are from the toxicity check (mostly the fifth day) where no day follows; animals may have died later. Schedules are NCI's codes, taken here to give the interval after Q, in days (D) or hours (H), and the number of doses after X.

Test system: L1210 leukemia ip in BDF1 mice, survival T/C
Test: NCI In Vivo Anticancer Drug Screen. Data for tumor model L1210 Leukemia (intraperitoneal) in B6D2F1 (BDF1) mice
Conditions: T/C endpoint: mean survival time, higher T/C = longer survival
[1] = dose: 400.0 mg/kg/injection, schedule: Q01DX001 (ip), vehicle: saline
[2] = dose: 400.0 mg/kg/injection, schedule: Q01DX009 (ip), vehicle: Klucel (hydroxypropylcellulose) (HPC)

In the case of `Clc1nnc2c3ccccc3ccn12`, the survivor count [1] is reported as 0 of 6.
`O=C(Nc1cccc(Cl)c1Cl)Sc1ccccc1O` was tested, and the survivor count [2] was 2 of 6.
With `O=C(CCCC(=O)NNC(=S)NC1CCCCC1)NNC(=S)NC1CCCCC1` the survivor count [1] was 2 of 4.
`O=C(C=C(C(F)(F)F)C(F)(F)F)c1ccc([N+](=O)[O-])cc1` was tested, and the survivor count (dose: 12.5 mg/kg/injection, schedule: Q01DX009 (ip), vehicle: other) was 1 of 6, the survivor count (dose: 50.0 mg/kg/injection, schedule: Q04DX003 (ip), vehicle: other) was 1 of 6 and the survivor count (dose: 100.0 mg/kg/injection, schedule: Q04DX003 (ip), vehicle: other) was 4 of 6. The survivor count (dose: 200.0 mg/kg/injection, schedule: Q04DX003 (ip), vehicle: other) was 3 of 6 and the survivor count (dose: 400.0 mg/kg/injection, schedule: Q04DX003 (ip), vehicle: other) was 1 of 6.
For `Clc1ccc2c(c1)/C(=C\c1ccnc3ccccc13)c1cc(Cl)cc(Cl)c1-2`, the survivor count [2] was 2 of 6.
In the case of `CC(=O)OCC(=O)c1cc(OC(C)=O)c(OC(C)=O)c(OC(C)=O)c1`, the survivor count (dose: 200.0 mg/kg/injection, schedule: Q01DX001 (ip), vehicle: saline) is reported as 2 of 4.
